# Measurements: the supplement of paper PMC8728848
# The list shows a part of the results.
# Columns and labels:
# Assay in all cases: glycan array binding signal (z-score within array); higher = stronger binding
# Conditions in all cases: glycan notation: IUPAC condensed, linker removed; mutation: D21K
# [1] = molecular target: Neu5Ac(a2-3)Gal(b1-3)]Neu5Ac(a2-3)Gal(b1-4)]GlcNAc
# Summary of the method: (§1)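 The binding signal is a Z-score computed within each array. Data were drawn from 3228 arrays in the Consortium for Functional Glycomics database, restricted to those with a known protein sequence. Scores were averaged over arrays of the same protein sequence at different concentrations or buffers, and over linkers, and negative values can be taken as non-binding.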
# [2] = molecular target: Neu5Ac(a2-3)Gal(b1-4)Glc
# Summary of the method: as §1
# [3] = molecular target: Neu5Ac(a2-3)Gal(b1-4)GlcNAc
# Summary of the method: as §1
# [4] = molecular target: Neu5Ac(a2-3)Gal(b1-4)GlcNAc(b1-2)Man
# Summary of the method: as §1
# [5] = molecular target: Neu5Ac(a2-3)Gal(b1-4)GlcNAc(b1-2)Man(a1-3)[GlcNAc(b1-4)][Neu5Ac(a2-3)Gal(b1-4)GlcNAc(b1-2)Man(a1-6)]Man(b1-4)GlcNAc(b1-4)GlcNAc
# Summary of the method: as §1
# [6] = molecular target: Neu5Ac(a2-3)Gal(b1-4)GlcNAc(b1-2)Man(a1-3)[Neu5Ac(a2-3)Gal(b1-4)GlcNAc(b1-2)Man(a1-6)]Man(b1-4)GlcNAc(b1-4)GlcNAc
# Summary of the method: as §1
# [7] = molecular target: Neu5Ac(a2-3)Gal(b1-4)GlcNAc(b1-2)Man(a1-3)[Neu5Ac(a2-3)Gal(b1-4)GlcNAc(b1-2)Man(a1-6)]Man(b1-4)GlcNAc(b1-4)[Fuc(a1-6)]GlcNAc
# Summary of the method: as §1
# [8] = molecular target: Neu5Ac(a2-3)Gal(b1-4)GlcNAc(b1-2)Man(a1-3)[Neu5Ac(a2-6)Gal(b1-4)GlcNAc(b1-2)Man(a1-6)]Man(b1-4)GlcNAc(b1-4)GlcNAc
# Summary of the method: as §1
# [9] = molecular target: Neu5Ac(a2-3)Gal(b1-4)GlcNAc(b1-2)[Neu5Ac(a2-3)Gal(b1-4)GlcNAc(b1-4)]Man(a1-3)[GlcNAc(b1-4)][Neu5Ac(a2-3)Gal(b1-4)GlcNAc(b1-2)[Neu5Ac(a2-3)Gal(b1-4)GlcNAc(b1-6)]Man(a1-6)]Man(b1-4)GlcNAc(b1-4)GlcNAc
# Summary of the method: as §1
# [10] = molecular target: Neu5Ac(a2-3)Gal(b1-4)GlcNAc(b1-2)[Neu5Ac(a2-3)Gal(b1-4)GlcNAc(b1-4)]Man(a1-3)[GlcNAc(b1-4)][Neu5Ac(a2-3)Gal(b1-4)GlcNAc(b1-4)Man(a1-6)]Man(b1-4)GlcNAc(b1-4)GlcNAc
# Summary of the method: as §1
# [11] = molecular target: Neu5Ac(a2-3)Gal(b1-4)GlcNAc(b1-2)[Neu5Ac(a2-3)Gal(b1-4)GlcNAc(b1-6)]Man(a1-6)[Neu5Ac(a2-3)Gal(b1-4)GlcNAc(b1-2)Man(a1-3)][GlcNAc(b1-4)]Man(b1-4)GlcNAc(b1-4)GlcNAc
# Summary of the method: as §1
# [12] = molecular target: Neu5Ac(a2-3)Gal(b1-4)GlcNAc(b1-3)Gal
# Summary of the method: as §1
# [13] = molecular target: Neu5Ac(a2-3)Gal(b1-4)GlcNAc(b1-3)Gal(b1-3)GlcNAc
# Summary of the method: as §1
# [14] = molecular target: Neu5Ac(a2-3)Gal(b1-4)GlcNAc(b1-3)Gal(b1-4)GlcNAc
# Summary of the method: as §1
# [15] = molecular target: Neu5Ac(a2-3)Gal(b1-4)GlcNAc(b1-3)Gal(b1-4)GlcNAc(b1-2)Man(a1-3)[Neu5Ac(a2-3)Gal(b1-4)GlcNAc(b1-3)Gal(b1-4)GlcNAc(b1-2)Man(a1-6)]Man(b1-4)GlcNAc(b1-4)GlcNAc
# Summary of the method: as §1
# [16] = molecular target: Neu5Ac(a2-3)Gal(b1-4)GlcNAc(b1-3)Gal(b1-4)GlcNAc(b1-3)Gal(b1-4)GlcNAc
# Summary of the method: as §1
# [17] = molecular target: Neu5Ac(a2-3)Gal(b1-4)GlcNAc(b1-3)Gal(b1-4)GlcNAc(b1-3)Gal(b1-4)GlcNAc(b1-2)Man(a1-3)[Neu5Ac(a2-3)Gal(b1-4)GlcNAc(b1-3)Gal(b1-4)GlcNAc(b1-3)Gal(b1-4)GlcNAc(b1-2)Man(a1-6)]GalNAc
# Summary of the method: as §1
# [18] = molecular target: Neu5Ac(a2-3)Gal(b1-4)GlcNAc(b1-3)Gal(b1-4)GlcNAc(b1-3)GalNAc
# Summary of the method: as §1
# [19] = molecular target: Neu5Ac(a2-3)Gal(b1-4)GlcNAc(b1-3)Gal(b1-4)GlcNAc(b1-3)[Neu5Ac(a2-3)Gal(b1-4)GlcNAc(b1-3)Gal(b1-4)GlcNAc(b1-6)]GalNAc
# Summary of the method: as §1
# [20] = molecular target: Neu5Ac(a2-3)Gal(b1-4)GlcNAc(b1-3)Gal(b1-4)GlcNAc(b1-6)[Gal(b1-3)]GalNAc
# Summary of the method: as §1
# [21] = molecular target: Neu5Ac(a2-3)Gal(b1-4)GlcNAc(b1-3)Gal(b1-4)[Fuc(a1-3)]GlcNAc
# Summary of the method: as §1
# [22] = molecular target: Neu5Ac(a2-3)Gal(b1-4)GlcNAc(b1-3)GalNAc
# Summary of the method: as §1
# [23] = molecular target: Neu5Ac(a2-3)Gal(b1-4)GlcNAc(b1-3)[Neu5Ac(a2-3)Gal(b1-4)GlcNAc(b1-6)]GalNAc
# Summary of the method: as §1
# [24] = molecular target: Neu5Ac(a2-3)Gal(b1-4)GlcNAc(b1-6)GalNAc
# Summary of the method: as §1
# [25] = molecular target: Neu5Ac(a2-3)Gal(b1-4)GlcNAc(b1-6)[Gal(b1-3)]GalNAc
# Summary of the method: as §1
# [26] = molecular target: Neu5Ac(a2-3)Gal(b1-4)GlcNAc(b1-6)[Neu5Ac(a2-3)Gal(b1-3)]GalNAc
# Summary of the method: as §1
# [27] = molecular target: Neu5Ac(a2-3)Gal(b1-4)GlcNAc6S
# Summary of the method: as §1
# [28] = molecular target: Neu5Ac(a2-3)Gal(b1-4)[Fuc(a1-3)]GlcNAc
# Summary of the method: as §1
# [29] = molecular target: Neu5Ac(a2-3)Gal(b1-4)[Fuc(a1-3)]GlcNAc(b1-2)Man
# Summary of the method: as §1
# [30] = molecular target: Neu5Ac(a2-3)Gal(b1-4)[Fuc(a1-3)]GlcNAc(b1-3)Gal
# Summary of the method: as §1
# [31] = molecular target: Neu5Ac(a2-3)Gal(b1-4)[Fuc(a1-3)]GlcNAc(b1-3)Gal(b1-4)GlcNAc
# Summary of the method: as §1
# [32] = molecular target: Neu5Ac(a2-3)Gal(b1-4)[Fuc(a1-3)]GlcNAc(b1-3)Gal(b1-4)[Fuc(a1-3)]GlcNAc(b1-3)Gal(b1-4)[Fuc(a1-3)]GlcNAc
# Summary of the method: as §1
# [33] = molecular target: Neu5Ac(a2-3)Gal(b1-4)[Fuc(a1-3)]GlcNAc(b1-3)GalNAc
# Summary of the method: as §1
# [34] = molecular target: Neu5Ac(a2-3)Gal(b1-4)[Fuc(a1-3)]GlcNAc(b1-6)[Gal(b1-3)]GalNAc
# Summary of the method: as §1
# [35] = molecular target: Neu5Ac(a2-3)Gal(b1-4)[Fuc(a1-3)]GlcNAc(b1-6)[Neu5Ac(a2-3)Gal(b1-3)]GalNAc
# Summary of the method: as §1
# [36] = molecular target: Neu5Ac(a2-3)Gal(b1-4)[Fuc(a1-3)]GlcNAc6S
# Summary of the method: as §1
# [37] = molecular target: Neu5Ac(a2-3)Gal6S(b1-4)GlcNAc
# Summary of the method: as §1
# [38] = molecular target: Neu5Ac(a2-3)Gal6S(b1-4)[Fuc(a1-3)]GlcNAc
# Summary of the method: as §1
binder,measurement,setting,value
KILRGVCKKIMRTFLRRISKKILTGKK [C7A (Sus scrofa)],glycan array binding signal (z-score),[1],1.16
same,glycan array binding signal (z-score),[2],0.135
same,glycan array binding signal (z-score),[3],-0.603
same,glycan array binding signal (z-score),[4],0.786
same,glycan array binding signal (z-score),[5],0.307
same,glycan array binding signal (z-score),[6],-0.248
same,glycan array binding signal (z-score),[7],1.41
same,glycan array binding signal (z-score),[8],-1.09
same,glycan array binding signal (z-score),[9],-0.005
same,glycan array binding signal (z-score),[10],0.079
same,glycan array binding signal (z-score),[11],0.142
same,glycan array binding signal (z-score),[12],0.067
same,glycan array binding signal (z-score),[13],-1.04
same,glycan array binding signal (z-score),[14],-0.607
same,glycan array binding signal (z-score),[15],0.393
same,glycan array binding signal (z-score),[16],-0.012
same,glycan array binding signal (z-score),[17],0.291
same,glycan array binding signal (z-score),[18],2.25
same,glycan array binding signal (z-score),[19],-0.329
same,glycan array binding signal (z-score),[20],0.156
same,glycan array binding signal (z-score),[21],0.25
same,glycan array binding signal (z-score),[22],0.438
same,glycan array binding signal (z-score),[23],1.35
same,glycan array binding signal (z-score),[24],1.02
same,glycan array binding signal (z-score),[25],0.167
same,glycan array binding signal (z-score),[26],-0.316
same,glycan array binding signal (z-score),[27],1.56
same,glycan array binding signal (z-score),[28],-0.949
same,glycan array binding signal (z-score),[29],0.621
same,glycan array binding signal (z-score),[30],-0.065
same,glycan array binding signal (z-score),[31],1.51
same,glycan array binding signal (z-score),[32],-0.977
same,glycan array binding signal (z-score),[33],-1.76
same,glycan array binding signal (z-score),[34],1.48
same,glycan array binding signal (z-score),[35],0.403
same,glycan array binding signal (z-score),[36],0.217
same,glycan array binding signal (z-score),[37],0.366
same,glycan array binding signal (z-score),[38],-0.764

# 2 records picked at random from those above:
binder,measurement,setting,value
KILRGVCKKIMRTFLRRISKKILTGKK [C7A (Sus scrofa)],glycan array binding signal (z-score),[30],-0.065
same,glycan array binding signal (z-score),[37],0.366
